No constants are given. Whether binding was seen depends on the method and setting. Some results given as binding are weak or reduced against the parent protein; the word gives no strength.
T1: human CRTh2 (chemoattractant receptor-homologous molecule expressed on T helper 2 cells) (human) (UniProt Q9Y5Y4)
T1 sequence: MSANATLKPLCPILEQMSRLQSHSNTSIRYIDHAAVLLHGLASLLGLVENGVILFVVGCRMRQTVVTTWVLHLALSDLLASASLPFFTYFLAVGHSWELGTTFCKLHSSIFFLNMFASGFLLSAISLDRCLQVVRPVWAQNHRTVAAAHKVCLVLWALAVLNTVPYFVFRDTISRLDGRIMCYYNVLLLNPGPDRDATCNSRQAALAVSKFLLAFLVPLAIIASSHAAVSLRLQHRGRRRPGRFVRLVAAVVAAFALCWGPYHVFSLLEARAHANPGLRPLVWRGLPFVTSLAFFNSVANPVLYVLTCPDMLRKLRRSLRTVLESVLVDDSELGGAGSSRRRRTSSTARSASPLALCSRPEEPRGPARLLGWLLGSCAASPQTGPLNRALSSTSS

T2: rhesus monkey CRTh2 (rhesus monkey)
T2 sequence: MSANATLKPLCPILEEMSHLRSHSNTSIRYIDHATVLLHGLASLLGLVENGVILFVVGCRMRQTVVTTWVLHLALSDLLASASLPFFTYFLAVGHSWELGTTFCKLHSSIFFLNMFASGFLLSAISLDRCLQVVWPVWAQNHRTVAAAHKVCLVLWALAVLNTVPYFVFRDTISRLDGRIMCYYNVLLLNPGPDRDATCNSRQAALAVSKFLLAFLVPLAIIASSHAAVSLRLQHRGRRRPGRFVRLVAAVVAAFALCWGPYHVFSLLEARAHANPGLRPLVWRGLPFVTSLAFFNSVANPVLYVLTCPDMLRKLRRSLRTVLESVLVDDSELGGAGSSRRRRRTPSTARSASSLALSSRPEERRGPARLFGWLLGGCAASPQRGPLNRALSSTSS

B1: mouse anti-human CRTh2 monoclonal antibody 31A5 (antibody, V domains shown)
VH: QVQLKESGPGLVAPSQSLSITCTVSGFSLTGYGVNWVRQPPGKGLEWLGMIWDDGTTDFDSALRSRLSISKDNSKSQVFLKMNSLQTDDTARYFCARGDYGYAMDYWGQGTSVTVSS
VL: DIQMTQSPASLSVSVGETVTITCRASVNIYSNLAWYQQRQGKSPQLLVYAATNLAEGVPSRFSGSGSGTQYSLKINSLQSEDFGSYYCQHFWVTPYTFGGGTKLEIK
B2: humanized anti-CRTh2 antibody hu19A2.v1 (antibody, human IgG1, kappa, V domains shown)
VH: EVQLVESGGGLVQPGGSLRLSCAASGFTFSSYSMSWVRQAPGKGLEWVAYISNGGSTTYYPGTVEGRFTISRDNSKNTLYLQMNSLRAEDTAVYYCARHRTNWDFDYWGQGTLVTVSS
VL: DIQMTQSPSSLSASVGDRVTITCRASENIYSNLAWYQQKPGKAPKLVVYAATQLADGVPSRFSGSGSGTDYTLTISSLQPEDFATYYCQHFWITPWTFGQGTKVEIKR

What was measured:
[1] = target: T1, human CRTh2 (chemoattractant receptor-homologous molecule expressed on T helper 2 cells) (human); assay: flow cytometry on primary human basophils and eosinophils
[2] = target: T1, human CRTh2 (chemoattractant receptor-homologous molecule expressed on T helper 2 cells) (human); assay: flow cytometry on 293 cells expressing human CRTh2; antibody at 20, 2 and 0.2 ug/ml [Cont.]
[3] = target: T1, human CRTh2 (chemoattractant receptor-homologous molecule expressed on T helper 2 cells) (human); assay: flow cytometry on 293 cells overexpressing human CRTh2
[4] = target: T1, human CRTh2 (chemoattractant receptor-homologous molecule expressed on T helper 2 cells) (human); assay: flow cytometry on primary human basophils and eosinophils of PBMC; antibody at 5 and 0.5 ug/ml, labelled anti-mouse IgG [Cont.]
[5] = target: T2, rhesus monkey CRTh2 (rhesus monkey); assay: flow cytometry on 300.19 cells expressing amino-terminal Flag-tagged rhesus CRTh2
[6] = target: T2, rhesus monkey CRTh2 (rhesus monkey); assay: flow cytometry on 293 cells expressing amino-terminal gD-tagged rhesus CRTh2
[7] = target: T2, rhesus monkey CRTh2 (rhesus monkey); assay: flow cytometry on 293 or 300.19 cells overexpressing rhesus CRTh2 and on primary rhesus basophils
[8] = target: T2, rhesus monkey CRTh2 (rhesus monkey); assay: flow cytometry on primary rhesus blood basophils [Cont.]

Row | Binder | binding [1] | binding [2] | binding [3] | binding [4] | binding [5] | binding [6] | binding [7] | binding [8]
1 | B1 | binds | binds | binds | binds |  |  |  | 
2 | B2 |  |  |  |  | no binding (tested: 10 ug/ml) | no binding (tested: 10 ug/ml) | no binding (tested: up to 10 ug/ml (FIG. 3D-3F legend)) | no binding (tested: 10 ug/ml)

Source: patent US20140328849A1 (Genentech, published 2014)
